Measured values: the supplement of paper PMC12819154, “High-throughput peptide-centric local stability assay extends protein–ligand identification to membrane proteins, tissues and bacteria” (Nature Structural & Molecular Biology, 2025)
This is one part of the list. Most entries show no effect beyond the scatter of the controls.

Amino acid sequences for entries named in this document (tags omitted). A change or cut given only in a name is not applied to a line headed by its entry.
UniProt Q13009: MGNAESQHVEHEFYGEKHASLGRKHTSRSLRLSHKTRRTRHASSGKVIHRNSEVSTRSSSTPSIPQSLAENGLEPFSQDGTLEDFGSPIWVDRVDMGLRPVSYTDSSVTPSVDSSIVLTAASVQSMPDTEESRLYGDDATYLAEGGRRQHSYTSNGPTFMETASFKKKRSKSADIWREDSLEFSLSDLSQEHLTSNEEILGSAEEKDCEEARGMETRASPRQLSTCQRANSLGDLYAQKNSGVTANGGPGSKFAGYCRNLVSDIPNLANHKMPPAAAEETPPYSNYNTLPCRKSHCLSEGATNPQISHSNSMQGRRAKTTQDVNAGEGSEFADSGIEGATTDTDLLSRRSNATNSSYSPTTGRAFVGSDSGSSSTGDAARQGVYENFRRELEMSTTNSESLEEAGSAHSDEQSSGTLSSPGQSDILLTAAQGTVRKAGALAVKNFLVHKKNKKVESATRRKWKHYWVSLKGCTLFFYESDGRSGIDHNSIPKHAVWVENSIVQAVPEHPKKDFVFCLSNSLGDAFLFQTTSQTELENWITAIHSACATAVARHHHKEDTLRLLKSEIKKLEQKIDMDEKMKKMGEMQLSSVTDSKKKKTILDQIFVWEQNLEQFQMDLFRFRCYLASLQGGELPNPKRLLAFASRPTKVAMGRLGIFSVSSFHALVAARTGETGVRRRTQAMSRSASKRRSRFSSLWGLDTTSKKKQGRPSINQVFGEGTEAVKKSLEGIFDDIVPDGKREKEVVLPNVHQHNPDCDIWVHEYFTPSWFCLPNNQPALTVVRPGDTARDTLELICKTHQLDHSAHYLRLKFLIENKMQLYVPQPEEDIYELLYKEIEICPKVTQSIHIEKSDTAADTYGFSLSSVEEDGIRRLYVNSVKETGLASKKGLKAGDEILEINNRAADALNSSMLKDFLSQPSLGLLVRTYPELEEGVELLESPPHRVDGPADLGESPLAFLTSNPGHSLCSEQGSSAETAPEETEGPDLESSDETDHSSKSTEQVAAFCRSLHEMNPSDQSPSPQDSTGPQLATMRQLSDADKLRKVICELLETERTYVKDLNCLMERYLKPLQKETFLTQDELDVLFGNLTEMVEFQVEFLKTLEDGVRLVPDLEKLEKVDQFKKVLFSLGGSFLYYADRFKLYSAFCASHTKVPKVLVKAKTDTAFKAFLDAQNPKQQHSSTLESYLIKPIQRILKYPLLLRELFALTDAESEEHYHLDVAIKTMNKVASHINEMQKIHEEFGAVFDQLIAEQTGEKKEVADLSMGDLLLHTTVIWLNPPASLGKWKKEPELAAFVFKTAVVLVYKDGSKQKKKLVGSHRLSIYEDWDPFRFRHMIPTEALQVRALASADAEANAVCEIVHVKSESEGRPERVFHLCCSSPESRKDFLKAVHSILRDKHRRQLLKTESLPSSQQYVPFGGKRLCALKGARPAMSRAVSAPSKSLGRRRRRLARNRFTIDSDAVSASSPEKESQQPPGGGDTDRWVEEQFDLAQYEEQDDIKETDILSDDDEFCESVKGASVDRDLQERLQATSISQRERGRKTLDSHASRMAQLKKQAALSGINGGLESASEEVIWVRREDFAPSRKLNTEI
UniProt Q05193: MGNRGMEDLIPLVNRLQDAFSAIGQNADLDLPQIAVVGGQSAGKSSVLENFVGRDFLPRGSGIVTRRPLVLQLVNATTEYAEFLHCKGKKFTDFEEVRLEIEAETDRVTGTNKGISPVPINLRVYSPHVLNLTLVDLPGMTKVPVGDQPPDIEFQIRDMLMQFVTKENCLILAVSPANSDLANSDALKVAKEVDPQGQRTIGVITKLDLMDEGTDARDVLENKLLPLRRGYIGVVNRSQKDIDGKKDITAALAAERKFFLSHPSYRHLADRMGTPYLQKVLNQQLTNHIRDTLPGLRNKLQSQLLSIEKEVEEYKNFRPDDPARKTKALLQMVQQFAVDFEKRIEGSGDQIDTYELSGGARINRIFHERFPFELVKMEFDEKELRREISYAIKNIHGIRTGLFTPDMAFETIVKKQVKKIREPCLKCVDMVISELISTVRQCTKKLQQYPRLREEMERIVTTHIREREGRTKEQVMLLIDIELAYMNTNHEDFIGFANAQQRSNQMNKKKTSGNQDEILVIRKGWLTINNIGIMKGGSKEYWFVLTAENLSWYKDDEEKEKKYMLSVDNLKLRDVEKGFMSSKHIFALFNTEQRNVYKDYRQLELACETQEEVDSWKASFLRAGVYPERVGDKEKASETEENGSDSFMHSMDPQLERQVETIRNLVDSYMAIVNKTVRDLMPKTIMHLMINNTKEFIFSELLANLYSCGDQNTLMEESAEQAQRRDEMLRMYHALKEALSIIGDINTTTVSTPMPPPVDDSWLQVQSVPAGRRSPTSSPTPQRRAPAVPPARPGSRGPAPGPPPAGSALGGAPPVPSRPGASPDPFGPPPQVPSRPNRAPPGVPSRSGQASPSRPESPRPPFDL
UniProt Q0ZGT2: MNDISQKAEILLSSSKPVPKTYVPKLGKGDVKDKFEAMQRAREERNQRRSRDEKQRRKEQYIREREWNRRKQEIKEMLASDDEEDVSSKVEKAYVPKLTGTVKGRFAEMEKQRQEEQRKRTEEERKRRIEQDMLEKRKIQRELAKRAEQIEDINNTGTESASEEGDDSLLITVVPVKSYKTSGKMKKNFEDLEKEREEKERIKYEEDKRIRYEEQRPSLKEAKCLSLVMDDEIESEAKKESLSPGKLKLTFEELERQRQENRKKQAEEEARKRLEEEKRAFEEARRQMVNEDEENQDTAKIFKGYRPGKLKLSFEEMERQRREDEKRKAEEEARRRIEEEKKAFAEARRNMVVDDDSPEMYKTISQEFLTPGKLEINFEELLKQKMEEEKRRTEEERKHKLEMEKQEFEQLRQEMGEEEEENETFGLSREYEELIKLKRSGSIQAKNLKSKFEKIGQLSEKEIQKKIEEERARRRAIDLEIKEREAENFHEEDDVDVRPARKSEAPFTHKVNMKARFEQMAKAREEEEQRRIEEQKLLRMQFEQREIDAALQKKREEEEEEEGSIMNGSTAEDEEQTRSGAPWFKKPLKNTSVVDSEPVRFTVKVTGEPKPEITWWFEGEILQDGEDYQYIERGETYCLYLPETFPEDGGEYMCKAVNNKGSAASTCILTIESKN
UniProt Q00613: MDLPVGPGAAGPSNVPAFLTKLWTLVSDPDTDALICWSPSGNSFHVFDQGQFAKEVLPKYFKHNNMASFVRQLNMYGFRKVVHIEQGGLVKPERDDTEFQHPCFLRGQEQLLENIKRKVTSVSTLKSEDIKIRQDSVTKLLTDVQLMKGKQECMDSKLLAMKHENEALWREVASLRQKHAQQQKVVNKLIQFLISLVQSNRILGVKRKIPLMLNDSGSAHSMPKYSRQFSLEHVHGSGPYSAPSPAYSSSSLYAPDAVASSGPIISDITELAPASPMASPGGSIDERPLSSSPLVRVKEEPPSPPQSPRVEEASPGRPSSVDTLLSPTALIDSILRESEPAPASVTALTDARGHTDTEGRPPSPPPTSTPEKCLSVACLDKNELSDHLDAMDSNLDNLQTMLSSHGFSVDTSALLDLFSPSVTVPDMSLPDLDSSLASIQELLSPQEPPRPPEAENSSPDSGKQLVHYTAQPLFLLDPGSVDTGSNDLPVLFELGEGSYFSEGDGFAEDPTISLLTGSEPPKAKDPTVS
UniProt Q06055: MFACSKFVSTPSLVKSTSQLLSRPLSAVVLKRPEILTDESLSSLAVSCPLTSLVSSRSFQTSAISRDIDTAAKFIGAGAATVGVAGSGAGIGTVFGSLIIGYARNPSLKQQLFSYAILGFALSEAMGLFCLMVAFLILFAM
UniProt Q08170: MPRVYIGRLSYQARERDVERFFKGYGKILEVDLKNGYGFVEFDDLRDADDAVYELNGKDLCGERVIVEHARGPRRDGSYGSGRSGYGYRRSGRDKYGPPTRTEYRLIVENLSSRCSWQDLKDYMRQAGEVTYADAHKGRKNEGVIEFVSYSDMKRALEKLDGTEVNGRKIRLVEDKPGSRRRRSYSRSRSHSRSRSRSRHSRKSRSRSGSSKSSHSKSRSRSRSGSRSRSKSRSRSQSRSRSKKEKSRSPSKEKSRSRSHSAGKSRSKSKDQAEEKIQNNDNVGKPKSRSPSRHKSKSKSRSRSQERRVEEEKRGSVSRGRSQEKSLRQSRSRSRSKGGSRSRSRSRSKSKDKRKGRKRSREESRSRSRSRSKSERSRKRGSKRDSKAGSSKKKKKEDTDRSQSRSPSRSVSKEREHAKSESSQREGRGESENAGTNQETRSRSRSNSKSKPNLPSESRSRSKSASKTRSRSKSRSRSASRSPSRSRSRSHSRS
UniProt Q08881: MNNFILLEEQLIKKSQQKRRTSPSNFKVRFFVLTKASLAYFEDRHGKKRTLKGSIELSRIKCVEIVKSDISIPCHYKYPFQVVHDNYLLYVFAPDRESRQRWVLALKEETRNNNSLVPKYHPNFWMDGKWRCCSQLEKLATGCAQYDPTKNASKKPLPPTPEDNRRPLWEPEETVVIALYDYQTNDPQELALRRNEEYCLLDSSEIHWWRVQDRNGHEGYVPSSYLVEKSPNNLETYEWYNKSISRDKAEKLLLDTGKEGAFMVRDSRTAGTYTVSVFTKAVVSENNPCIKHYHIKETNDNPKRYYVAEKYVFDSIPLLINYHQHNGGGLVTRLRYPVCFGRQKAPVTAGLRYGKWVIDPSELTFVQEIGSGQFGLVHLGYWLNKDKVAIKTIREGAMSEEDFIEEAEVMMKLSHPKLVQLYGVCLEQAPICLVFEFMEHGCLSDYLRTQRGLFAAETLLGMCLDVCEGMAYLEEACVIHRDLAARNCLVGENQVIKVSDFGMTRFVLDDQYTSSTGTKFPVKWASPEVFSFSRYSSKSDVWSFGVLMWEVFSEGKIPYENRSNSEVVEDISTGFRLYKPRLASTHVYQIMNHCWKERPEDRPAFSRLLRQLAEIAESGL
UniProt Q08211, whole entry: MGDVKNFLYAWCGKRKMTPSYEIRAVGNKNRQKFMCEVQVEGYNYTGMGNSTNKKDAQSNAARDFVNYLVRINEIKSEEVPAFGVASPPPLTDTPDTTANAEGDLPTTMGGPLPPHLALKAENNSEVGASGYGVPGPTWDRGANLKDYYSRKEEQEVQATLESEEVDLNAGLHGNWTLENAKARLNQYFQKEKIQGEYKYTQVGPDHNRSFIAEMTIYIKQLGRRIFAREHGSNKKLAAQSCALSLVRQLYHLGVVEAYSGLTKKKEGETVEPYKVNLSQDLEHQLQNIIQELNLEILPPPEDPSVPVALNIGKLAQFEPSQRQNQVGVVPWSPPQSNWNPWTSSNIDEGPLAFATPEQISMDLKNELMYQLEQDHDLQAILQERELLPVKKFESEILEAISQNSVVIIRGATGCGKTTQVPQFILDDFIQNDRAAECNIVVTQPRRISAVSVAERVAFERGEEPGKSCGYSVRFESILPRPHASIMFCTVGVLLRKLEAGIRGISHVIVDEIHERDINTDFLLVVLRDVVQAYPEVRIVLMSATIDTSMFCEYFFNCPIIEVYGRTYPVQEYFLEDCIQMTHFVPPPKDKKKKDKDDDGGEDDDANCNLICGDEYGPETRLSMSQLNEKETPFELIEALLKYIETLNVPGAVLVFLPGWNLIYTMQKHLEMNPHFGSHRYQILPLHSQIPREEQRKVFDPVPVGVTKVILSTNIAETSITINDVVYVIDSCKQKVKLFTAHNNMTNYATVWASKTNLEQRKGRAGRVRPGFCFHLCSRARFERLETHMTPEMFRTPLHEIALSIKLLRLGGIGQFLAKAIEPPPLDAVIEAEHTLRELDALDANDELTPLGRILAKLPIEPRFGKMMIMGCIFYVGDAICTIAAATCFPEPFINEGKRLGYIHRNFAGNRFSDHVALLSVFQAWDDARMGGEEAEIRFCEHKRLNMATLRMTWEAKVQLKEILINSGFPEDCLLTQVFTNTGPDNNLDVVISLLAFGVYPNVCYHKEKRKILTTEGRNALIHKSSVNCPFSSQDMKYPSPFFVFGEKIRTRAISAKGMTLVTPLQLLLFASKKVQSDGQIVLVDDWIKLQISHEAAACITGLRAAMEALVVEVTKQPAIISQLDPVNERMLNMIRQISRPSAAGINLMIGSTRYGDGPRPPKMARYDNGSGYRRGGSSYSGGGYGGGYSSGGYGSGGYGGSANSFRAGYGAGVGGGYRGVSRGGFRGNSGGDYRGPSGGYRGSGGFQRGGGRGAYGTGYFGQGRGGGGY
UniProt Q06609, whole entry: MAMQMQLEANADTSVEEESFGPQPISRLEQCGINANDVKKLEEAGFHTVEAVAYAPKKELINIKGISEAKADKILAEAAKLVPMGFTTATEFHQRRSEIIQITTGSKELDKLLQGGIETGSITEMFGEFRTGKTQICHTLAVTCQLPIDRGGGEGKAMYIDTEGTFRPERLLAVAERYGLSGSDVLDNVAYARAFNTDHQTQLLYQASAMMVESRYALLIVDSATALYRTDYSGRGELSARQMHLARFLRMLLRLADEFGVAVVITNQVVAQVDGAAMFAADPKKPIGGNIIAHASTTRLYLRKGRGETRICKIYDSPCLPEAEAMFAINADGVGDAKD

What follows are targets tested with Cc1nc(Nc2ncc(C(=O)Nc3c(C)cccc3Cl)s2)cc(N2CCN(CCO)CC2)n1 [dasatinib] (assay: log2 fold change of tryptic peptide abundance, ligand vs vehicle (limited proteolysis) (log2 ratio); higher = more trypsin-susceptible (destabilized)). Details: ligand concentration: 5 uM; sample: K562 cleared lysate.
“C1QBP (peptide sequence: AFVDFLSDEIKEER, peptide start residue: 81) (UniProt Q07021)” gave a log2 fold change of 0.0676. With “MDM2 (peptide sequence: AKLENSTQAEEGFDVPDCKK, peptide start residue: 345) (UniProt Q00987)” the log2 fold change was 0.373. Work on “SOS2 (peptide sequence: LTYHMYADPNFVR, peptide start residue: 613) (UniProt Q07890)” yielded a log2 fold change of 0.124. “TAGLN (peptide sequence: GASQAGMTGYGR, peptide start residue: 184) (UniProt Q01995)” gave a log2 fold change of 0.124. Work on “CAV1 (peptide sequence: YVDSEGHLYTVPIR, peptide start residue: 6) (UniProt Q03135)” yielded a log2 fold change of -0.0929. “UniProt Q13009 (peptide sequence: AVSAPSK, peptide start residue: 1435)” was tested, and the log2 fold change was -0.0453. For “TBL3 (peptide sequence: REAPEELLAYEGVR, peptide start residue: 741) (UniProt Q12788)”, the log2 fold change was 0.392. For “OCRL (peptide sequence: VQGDWIR, peptide start residue: 86) (UniProt Q01968)”, the log2 fold change was 0.252. Work on “PRDM2 (peptide sequence: DFGKPSDGK, peptide start residue: 752) (UniProt Q13029)” yielded a log2 fold change of 0.508. In the case of “TWF1 (peptide sequence: MLYSSCK, peptide start residue: 270) (UniProt Q12792)”, the log2 fold change is reported as 0.0786. “FLII (peptide sequence: EGEEATAEAEEK, peptide start residue: 963) (UniProt Q13045)” showed a log2 fold change of 0.408. For “DNM1 (peptide sequence: KLQQYPR, peptide start residue: 445) (UniProt Q05193)”, the log2 fold change was 0.235. In the case of “XPC (peptide sequence: GCSHPGGSADGPAK, peptide start residue: 59) (UniProt Q01831)”, the log2 fold change is reported as 0.223. Work on “UniProt Q12904 (peptide sequence: AILQATLREEK, peptide start residue: 36)” yielded a log2 fold change of -0.2. “MRPS9 (peptide sequence: KKPGQEGAR, peptide start residue: 380) (UniProt P82933)” was tested, and the log2 fold change was -0.292. “C19orf57 (peptide sequence: VSPQASVVLEHR, peptide start residue: 475) (UniProt Q0VDD7)” was tested, and the log2 fold change was -0.756. “NEXN (peptide sequence: EAENFHEEDDVDVRPAR, peptide start residue: 485) (UniProt Q0ZGT2)” gave a log2 fold change of 0.301. With “HSF1 (peptide sequence: KIPLMLNDSGSAHSMPK, peptide start residue: 208) (UniProt Q00613)” the log2 fold change was 0.116. Target “UniProt Q05655 (peptide sequence: FEHLLED, peptide start residue: 670)” has a log2 fold change of 0.187. In the case of “FABP5 (peptide sequence: KMGAMAKPDCIITCDGK, peptide start residue: 34) (UniProt Q01469)”, the log2 fold change is reported as -0.292. “UniProt Q06055 (peptide sequence: STSQLLSRPLSAVVLK, peptide start residue: 16)” was tested, and the log2 fold change was 0.615. “BNIP1 (peptide sequence: AELLQGGDLLR, peptide start residue: 112) (UniProt Q12981)” showed a log2 fold change of -0.501. “PSME1 (peptide sequence: KGEDEDKGPPCGPVNCNEK, peptide start residue: 91) (UniProt Q06323)” was tested, and the log2 fold change was 0.343. In the case of “UniProt Q08170 (peptide sequence: RALEKLDGTEVNGR, peptide start residue: 155)”, the log2 fold change is reported as -0.438. “NFIA (peptide sequence: SLPSTSSTSSTK, peptide start residue: 265) (UniProt Q12857)” showed a log2 fold change of -0.259. “ITK (peptide sequence: AEKLLLDTGK, peptide start residue: 249) (UniProt Q08881)” showed a log2 fold change of 0.0663. “DHX9 (peptide sequence: LQISHEAAACITGLR, peptide start residue: 1090) (UniProt Q08211)” gave a log2 fold change of 0.112. “ELAVL2 (peptide sequence: AINTLNGLR, peptide start residue: 77) (UniProt Q12926)” showed a log2 fold change of -0.0992. Target “RAD51 (peptide sequence: LVPMGFTTATEFHQR, peptide start residue: 81) (UniProt Q06609)” has a log2 fold change of 0.0792.
